Values from PubChem BioAssay AID1671195 (Yale University, 2021)
Purpose: 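Regulators of LDL receptor activity judged by labelled LDL uptake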 (primary screen). System: human Huh7 hepatoma cells. Reagent: siRNA pool against human genes, 18 nM. Timing: about 2 to 2.5 days of knockdown, then 8 h LDL uptake. Conditions: DiI-labelled LDL at 30 µg/ml for 8 h, in lipoprotein-deficient serum medium. Measured: 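Per-cell DiI-LDL intensity by automated imaging; well means scaled to the plate median and given as a robust z-score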. Scale: robust z-score: higher = more LDL uptake after knockdown. Call rule: 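a gene counts as active if at least two replicate z-scores exceed ±2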.
Shown is an unselected part of about 22,000 reagents. About 1,510 of them (6.9%) count as active. 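Active includes knockdowns raising or lowering LDL uptake; positive z-scores mean more uptake, negative mean less.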 The numbers tell different reagents against one gene apart. No sequences are given here.

no.	gene	pool no.	robust z-score, replicate 1	robust z-score, replicate 2	robust z-score, replicate 3	outcome
1	REXO2	1	0.711	0.369	0.734	inactive
2	MYH7	1	0.306	0.195	1.76	inactive
3	IL17A	1	-1.2	-0.462	-1.12	inactive
4	RIGI	1	-0.828	-0.917	-0.825	inactive
5	RPL7P33	1	-0.4	-0.407	-0.598	inactive
6	FKBP11	1	0.554	1.39	0.157	inactive
7	MLLT11	1	-0.29	1.2	-1.39	inactive
8	AKTIP	1	-0.544	0.514	0.684	inactive
9	IL1A	1	1.49	2.24	1.85	inactive
10	EGLN3	1	0.2	-0.837	0.231	inactive
11	ALCAM	1	1.99	0.444	1.14	inactive
12	RPS6KB1	1	-0.641	-0.719	0.00328	inactive
13	NSUN7	1	0.411	-0.042	-0.118	inactive
14	HAUS7	1	0.269	0.424	-0.0982	inactive
15	PPP1R21	1	-0.946	-0.527	0.332	inactive
16	GALNT3	1	0.387	-0.0702	0.234	inactive
17	OR1I1	1	-0.322	0.615	0.422	inactive
18	SRP54	1	-0.774	-0.0561	-0.616	inactive

Reformatted: 3 of the entries above.
{"gene":"AKTIP","pool no.":1,"robust z-score, replicate 1":-0.544,"robust z-score, replicate 2":0.514,"robust z-score, replicate 3":0.684,"outcome":"inactive"}
{"gene":"IL1A","pool no.":1,"robust z-score, replicate 1":1.49,"robust z-score, replicate 2":2.24,"robust z-score, replicate 3":1.85,"outcome":"inactive"}
{"gene":"EGLN3","pool no.":1,"robust z-score, replicate 1":0.2,"robust z-score, replicate 2":-0.837,"robust z-score, replicate 3":0.231,"outcome":"inactive"}

The list goes on.
no.	gene	pool no.	robust z-score, replicate 1	robust z-score, replicate 2	robust z-score, replicate 3	outcome
19	CLCA2	1	-1.07	-1.62	-0.966	inactive
20	RPP38-DT	1	1.16	0.58	0.687	inactive
21	GRPEL1	1	-0.913	-0.0719	-0.548	inactive
22	CCN6	1	-1.15	-0.947	-2.42	inactive
23	LOC440134 (retired record)	1	0.829	0.872	0.599	inactive
24	ZNF439	1	-0.0986	0.1	0.0814	inactive
25	SCN7A	1	0.537	0.263	0.805	inactive
26	HOXC11	1	2.62	2.14	2.78	active
27	LIME1	1	1.16	0.367	0.79	inactive
28	PDZK1	1	2.51	1.19	2.23	active
29	DRD3	1	-0.268	0.883	-0.229	inactive
30	AQP11	1	-0.321	-0.152	-0.22	inactive
31	BPIFB6	1	0.0459	0.0838	-0.313	inactive
32	TOMM22	1	0.628	0.256	0.423	inactive
33	GPD2	1	-0.309	-0.576	-0.266	inactive
34	MTERF2	1	-0.672	-1.43	-1.12	inactive
35	ATP6V1H	1	1.14	0.907	0.64	inactive
36	FBXO46	1	2.02	2.21	3.12	active
37	SYNE3	1	0.115	0.241	1.29	inactive
38	SYNE3	2	-1.85	-2.13	-1.58	inactive
39	POGZ	1	0.962	1.2	1.86	inactive
40	P2RY13	1	-1.58	-1.07	-0.907	inactive
41	LOC400992 (retired record)	1	2.35	2.08	2.19	active
42	IGHV5-78	1	-0.554	0.29	-0.00107	inactive
43	HIRIP3	1	-1.12	-0.429	-0.31	inactive
44	NEK1	1	0.906	1.5	0.907	inactive
45	SMIM22	1	-0.123	-0.241	-0.526	inactive
46	ACADM	1	0.733	0.076	0.348	inactive
